From the supplement of paper PMC6411743
± gives the standard deviation of the averaged measurements. The list shows a part of the results, in another mix than the full data.

Experiments:
Assay in all cases: NP40-soluble protein abundance relative to vehicle (solubility fold change) (ratio); higher = more soluble protein in presence of AMP-PNP
CAMLG = target: T1, CAMLG (UniProt P49069)
T1 sequence (whole entry): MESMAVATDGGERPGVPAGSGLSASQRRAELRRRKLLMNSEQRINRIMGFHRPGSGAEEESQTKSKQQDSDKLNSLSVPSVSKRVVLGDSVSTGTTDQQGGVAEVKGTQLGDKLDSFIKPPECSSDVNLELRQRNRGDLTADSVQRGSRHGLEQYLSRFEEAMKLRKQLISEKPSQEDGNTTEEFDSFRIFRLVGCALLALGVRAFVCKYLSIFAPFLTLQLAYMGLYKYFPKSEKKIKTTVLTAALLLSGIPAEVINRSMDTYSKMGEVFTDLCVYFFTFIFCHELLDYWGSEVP
How it was run: (§1)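 Crude Jurkat lysate, prepared by Dounce homogenisation, was exposed to eight concentrations from 0.1 to 10 mM for 10 min at room temperature and then 3 min at 37 °C. Solubilisation used 0.8% NP40 with benzonase for 60 min at 4 °C, followed by ultracentrifugation and TMT labelling of the supernatant for LC-MS/MS. After vsn normalisation of intensities, each value is the fold change against the detergent-processed vehicle within each replicate, across three independent experiments.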

HADHB = target: T2, HADHB (UniProt P55084)
T2 sequence (whole entry): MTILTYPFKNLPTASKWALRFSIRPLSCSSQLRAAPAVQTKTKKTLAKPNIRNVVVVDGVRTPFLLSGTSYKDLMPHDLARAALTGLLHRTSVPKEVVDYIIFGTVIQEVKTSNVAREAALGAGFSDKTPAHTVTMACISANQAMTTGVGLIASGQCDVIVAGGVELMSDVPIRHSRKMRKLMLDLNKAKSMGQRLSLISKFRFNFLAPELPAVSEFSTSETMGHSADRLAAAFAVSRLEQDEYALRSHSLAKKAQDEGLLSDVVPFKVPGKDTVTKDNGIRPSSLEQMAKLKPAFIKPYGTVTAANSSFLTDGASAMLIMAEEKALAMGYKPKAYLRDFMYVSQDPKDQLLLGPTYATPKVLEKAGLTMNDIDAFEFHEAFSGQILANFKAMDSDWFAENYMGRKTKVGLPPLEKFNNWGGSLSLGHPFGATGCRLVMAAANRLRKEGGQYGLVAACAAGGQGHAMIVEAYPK
How it was run: as §1

HNRNPF = target: T3, HNRNPF (UniProt P52597)
T3 sequence (whole entry): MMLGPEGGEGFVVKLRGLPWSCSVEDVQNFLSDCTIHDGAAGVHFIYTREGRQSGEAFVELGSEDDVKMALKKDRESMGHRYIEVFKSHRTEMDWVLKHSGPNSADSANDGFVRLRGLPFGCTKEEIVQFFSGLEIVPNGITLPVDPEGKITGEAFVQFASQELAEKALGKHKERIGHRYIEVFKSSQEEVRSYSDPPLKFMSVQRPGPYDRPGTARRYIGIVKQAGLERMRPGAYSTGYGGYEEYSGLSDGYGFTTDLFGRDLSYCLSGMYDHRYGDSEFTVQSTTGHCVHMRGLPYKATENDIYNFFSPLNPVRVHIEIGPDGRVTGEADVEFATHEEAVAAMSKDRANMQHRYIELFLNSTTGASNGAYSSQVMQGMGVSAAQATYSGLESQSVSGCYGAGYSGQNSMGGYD
How it was run: as §1

MDH2 = target: T4, MDH2 (UniProt P40926)
T4 sequence (whole entry): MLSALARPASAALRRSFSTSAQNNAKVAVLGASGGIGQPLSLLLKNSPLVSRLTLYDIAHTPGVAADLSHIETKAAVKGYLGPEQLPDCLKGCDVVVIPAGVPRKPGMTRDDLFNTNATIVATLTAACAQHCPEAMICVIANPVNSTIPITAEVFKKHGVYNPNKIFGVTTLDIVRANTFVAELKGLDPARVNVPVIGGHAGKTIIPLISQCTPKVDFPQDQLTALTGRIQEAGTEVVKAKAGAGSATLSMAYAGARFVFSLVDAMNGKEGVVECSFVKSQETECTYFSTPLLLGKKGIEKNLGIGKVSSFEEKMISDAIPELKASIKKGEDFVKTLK
How it was run: as §1

PIP4K2A = target: T5, PIP4K2A (UniProt P48426)
T5 sequence (whole entry): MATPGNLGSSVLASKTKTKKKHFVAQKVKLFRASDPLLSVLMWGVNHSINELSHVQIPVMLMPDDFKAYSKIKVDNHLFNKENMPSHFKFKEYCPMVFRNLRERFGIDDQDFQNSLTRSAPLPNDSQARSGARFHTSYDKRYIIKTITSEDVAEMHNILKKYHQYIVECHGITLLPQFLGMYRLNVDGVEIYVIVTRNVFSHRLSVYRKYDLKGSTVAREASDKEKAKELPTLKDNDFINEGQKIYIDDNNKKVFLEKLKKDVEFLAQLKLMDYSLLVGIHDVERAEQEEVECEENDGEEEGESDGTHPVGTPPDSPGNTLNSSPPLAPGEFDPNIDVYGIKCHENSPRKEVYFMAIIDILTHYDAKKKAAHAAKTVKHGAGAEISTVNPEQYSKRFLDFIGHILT
How it was run: as §1

PPM1F = target: T6, PPM1F (UniProt P49593); conditions: concentration: 1mM
T6 sequence (whole entry): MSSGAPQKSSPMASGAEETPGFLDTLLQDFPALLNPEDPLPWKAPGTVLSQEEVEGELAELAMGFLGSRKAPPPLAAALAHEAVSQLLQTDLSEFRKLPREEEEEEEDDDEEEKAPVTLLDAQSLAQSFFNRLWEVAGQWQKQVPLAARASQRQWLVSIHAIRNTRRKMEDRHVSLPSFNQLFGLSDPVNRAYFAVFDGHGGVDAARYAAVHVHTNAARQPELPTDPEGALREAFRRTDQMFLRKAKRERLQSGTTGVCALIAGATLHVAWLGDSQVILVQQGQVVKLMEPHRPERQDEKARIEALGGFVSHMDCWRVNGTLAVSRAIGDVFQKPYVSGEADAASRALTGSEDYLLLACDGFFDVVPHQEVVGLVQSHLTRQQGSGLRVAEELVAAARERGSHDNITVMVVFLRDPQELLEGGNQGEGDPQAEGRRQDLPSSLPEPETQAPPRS
How it was run: as §1

Work on `Nc1ncnc2c1ncn2[C@@H]1O[C@H](COP(=O)(O)OP(=O)(O)NP(=O)(O)O)[C@@H](O)[C@H]1O` [adenylyl imidodiphosphate] yielded an NP40-soluble protein abundance (CAMLG; concentration: 1mM) of 1.01 ± 0.024, an NP40-soluble protein abundance (CAMLG; concentration: 2mM) of 1.06 ± 0.064 and an NP40-soluble protein abundance (CAMLG; concentration: 4mM) of 1.01 ± 0.048. For the same compound, the NP40-soluble protein abundance (CAMLG; concentration: 6mM) was 0.994 ± 0.021, the NP40-soluble protein abundance (CAMLG; concentration: 8mM) was 0.9695 ± 0.0082 and the NP40-soluble protein abundance (CAMLG; concentration: 10mM) was 1.01 ± 0.025. It also gave an NP40-soluble protein abundance (HADHB; concentration: 1mM) of 0.9728 ± 0.0092, an NP40-soluble protein abundance (HADHB; concentration: 2mM) of 0.923 ± 0.055 and an NP40-soluble protein abundance (HADHB; concentration: 4mM) of 0.965 ± 0.024. For the same compound, the NP40-soluble protein abundance (HADHB; concentration: 6mM) was 0.969 ± 0.029, the NP40-soluble protein abundance (HADHB; concentration: 8mM) was 0.976 ± 0.035 and the NP40-soluble protein abundance (HADHB; concentration: 10mM) was 0.984 ± 0.045. For the same compound, the NP40-soluble protein abundance (HNRNPF; concentration: 1mM) was 0.967 ± 0.036, the NP40-soluble protein abundance (HNRNPF; concentration: 2mM) was 0.913 ± 0.062 and the NP40-soluble protein abundance (HNRNPF; concentration: 4mM) was 0.939 ± 0.02. For the same compound, the NP40-soluble protein abundance (HNRNPF; concentration: 6mM) was 0.973 ± 0.019, the NP40-soluble protein abundance (HNRNPF; concentration: 8mM) was 0.965 ± 0.027 and the NP40-soluble protein abundance (HNRNPF; concentration: 10mM) was 0.921 ± 0.029. The NP40-soluble protein abundance (MDH2; concentration: 1mM) was 0.981 ± 0.064, the NP40-soluble protein abundance (MDH2; concentration: 2mM) was 0.98 ± 0.065 and the NP40-soluble protein abundance (MDH2; concentration: 4mM) was 0.96 ± 0.045. It also gave an NP40-soluble protein abundance (MDH2; concentration: 6mM) of 1 ± 0.038, an NP40-soluble protein abundance (MDH2; concentration: 8mM) of 0.992 ± 0.014 and an NP40-soluble protein abundance (MDH2; concentration: 10mM) of 1.01 ± 0.022. It also gave an NP40-soluble protein abundance (PIP4K2A; concentration: 1mM) of 0.952 ± 0.037, an NP40-soluble protein abundance (PIP4K2A; concentration: 2mM) of 0.998 ± 0.026 and an NP40-soluble protein abundance (PIP4K2A; concentration: 4mM) of 0.994 ± 0.048. For the same compound, the NP40-soluble protein abundance (PIP4K2A; concentration: 6mM) was 1.07 ± 0.07, the NP40-soluble protein abundance (PIP4K2A; concentration: 8mM) was 1.1 ± 0.048 and the NP40-soluble protein abundance (PIP4K2A; concentration: 10mM) was 1.12 ± 0.068. The NP40-soluble protein abundance (PPM1F) was 1.028 ± 0.0057.
